Source: PubChem BioAssay AID190 (DTP/NCI, 2004)
The list is a part of this screen's results and no random one: it gathers tests that were run many times, whatever their T/C, doses with no T/C, and many T/C values between a quarter and a half above the control. Further doses and runs are listed elsewhere. T/C is the treated group as % of the vehicle group. Some doses have a count of surviving animals in place of a T/C: the source files T/C as zero there, which appears to mark a toxic dose or a test without result, not a measured value. Some survivor counts are full or nearly so, which does not show that the dose was tolerated: the source hardly ever lists a survival T/C far under the control, and the zero likely stands for such cases as well. Survivors were counted at the toxicity check, usually on the fifth day, unless a day is given; later deaths do not show. Schedule codes are those of the source, read here as Q, the interval in days (D) or hours (H), X, the number of doses. Some entries were tested several times; their values stand side by side, smallest first. Some schedules carry Z or #; the key to these is not given. For survival time, the PubChem record calls one and a half times the control and up active, and a quarter to a half above the control has no call in these data; cut-offs in other NCI protocols can differ. Some T/C values are followed by the survivors on the day toxicity was checked, most often the fifth; where none is given, no animal had died by that day. Signs of the kind (2×) say how often a value occurs here.

System: AKR/Lw mice, AKR lymphoma ip, median survival T/C
Experiment: NCI In Vivo Anticancer Drug Screen. Data for tumor model Lymphoma AKR (Transplanted) (intraperitoneal) in AKR/Lw mice
Conditions: T/C endpoint: median survival time, higher T/C = longer survival
Procedure: The antitumor activity of compounds was measured in mice bearing transplantable tumors. Survival or tumor size were measured and the results are expressed as the measurement made in the treated group (T) divided by the measurement made in the vehicle treated control group (C). The tumor model used in this assay is Lymphoma AKR (Transplanted) (intraperitoneal) in AKR/Lw mice

[1] = dose: 100.0 mg/kg/injection, schedule: Q04DX003 (sc), vehicle: steroid suspending solution
[2] = dose: 200.0 mg/kg/injection, schedule: Q04DX003 (sc), vehicle: steroid suspending solution
[3] = dose: 400.0 mg/kg/injection, schedule: Q01DX001 (sc), vehicle: steroid suspending solution
[4] = dose: 200.0 mg/kg/injection, schedule: Q01DX001 (ip), vehicle: saline
[5] = dose: 400.0 mg/kg/injection, schedule: Q01DX001 (ip), vehicle: saline

In the case of `C[C@]12C=CC(=O)C=C1CC[C@@H]1[C@@H]2C(=O)C[C@@]2(C)[C@H]1CC[C@]2(O)C(=O)CO`, the survivor count (dose: 12.5 mg/kg/injection, schedule: Q01DX004 (sc), vehicle: steroid suspending solution) is reported as 10 of 10, the survivor count (dose: 25.0 mg/kg/injection, schedule: Q01DX009 (sc), vehicle: steroid suspending solution) is reported as 10 of 10 and the T/C (dose: 50.0 mg/kg/injection, schedule: Q01DX001 (sc), vehicle: steroid suspending solution) is reported as 90, 97, 110, 128 % of control. For the same molecule, the survivor count (dose: 50.0 mg/kg/injection, schedule: Q01DX009 (sc), vehicle: Klucel (hydroxypropylcellulose) (HPC)) was 10 of 10, the survivor count (dose: 50.0 mg/kg/injection, schedule: Q01DX009 (sc), vehicle: steroid suspending solution) was 9 of 10 and 10 of 10 and the survivor count (dose: 75.0 mg/kg/injection, schedule: Q01DX009 (sc), vehicle: steroid suspending solution) was 10 of 10. For the same molecule, the survivor count (dose: 75.0 mg/kg/injection, schedule: Q04DX003 (ip), vehicle: saline) was 10 of 10, the T/C (dose: 75.0 mg/kg/injection, schedule: Q04DX003 (sc), vehicle: steroid suspending solution, evaluated on day 45) was 113 (2×) and 117 % of control and the T/C (dose: 75.0 mg/kg/injection, schedule: Q04DX003 (sc), vehicle: steroid suspending solution, evaluated on day 60) was 111 % of control. For the same molecule, the T/C (dose: 100.0 mg/kg/injection, schedule: Q01DX001 (sc), vehicle: steroid suspending solution) was 89, 92, 93, 95 % of control, the survivor count (dose: 100.0 mg/kg/injection, schedule: Q01DX009 (sc), vehicle: Klucel (hydroxypropylcellulose) (HPC)) was 10 of 10 and the survivor count (dose: 100.0 mg/kg/injection, schedule: Q01DX009 (sc), vehicle: steroid suspending solution) was 10 of 10. The T/C [1] was 97, 108, 125 % of control [8 of 10 alive], the survivor count [1] was 8 of 10 and 10 of 10 and the survivor count (dose: 100.0 mg/kg/injection, schedule: Q## X008 (sc), vehicle: steroid suspending solution) was 10 of 10. For the same molecule, the survivor count (dose: 150.0 mg/kg/injection, schedule: Q01DX009 (sc), vehicle: steroid suspending solution) was 10 of 10, the survivor count (dose: 200.0 mg/kg/injection, schedule: Q01DX004 (sc), vehicle: steroid suspending solution) was 9 of 10 and the survivor count (dose: 200.0 mg/kg/injection, schedule: Q01DX009 (ip), vehicle: water) was 10 of 10. The survivor count (dose: 200.0 mg/kg/injection, schedule: Q01DX009 (sc), vehicle: Klucel (hydroxypropylcellulose) (HPC)) was 10 of 10, the T/C [2] was 135 % of control and the survivor count [2] was 7 of 10 and 10 of 10. For the same molecule, the survivor count (dose: 300.0 mg/kg/injection, schedule: Q01DX004 (sc), vehicle: steroid suspending solution) was 10 of 10, the T/C [3] was 93, 104, 111 % of control and the survivor count [3] was 10 of 10. The survivor count (dose: 400.0 mg/kg/injection, schedule: Q01DX004 (sc), vehicle: steroid suspending solution) was 10 of 10, the survivor count (dose: 400.0 mg/kg/injection, schedule: Q01DX009 (ip), vehicle: water) was 10 of 10 and the survivor count (dose: 400.0 mg/kg/injection, schedule: Q04DX003 (sc), vehicle: steroid suspending solution) was 9 of 10.
For `O=C1OC(=O)C2C1C1C3C=CC3C1C21C=C1` (stereo not given), the survivor count (dose: 100.0 mg/kg/injection, schedule: Q01DX001 (ip), vehicle: saline) was 7 of 10, the survivor count [4] was 1 of 10 and the survivor count [5] was 0 of 10.
In the case of `CC(=O)c1ccc2ccccc2c1O`, the survivor count (dose: 100.0 mg/kg/injection, schedule: Q01DX001 (ip), vehicle: Klucel (hydroxypropylcellulose) (HPC)) is reported as 10 of 10 and the T/C (dose: 100.0 mg/kg/injection, schedule: Q01DX001 (ip), vehicle: other) is reported as 125 % of control.
In the case of `CCCCC(C(=O)OCC)C(CCC1CCCCC1)(C(=O)OCC)C(=O)OCC` (stereo not given), the survivor count (dose: 400.0 mg/kg/injection, schedule: Q01DX001 (ip), vehicle: Klucel (hydroxypropylcellulose) (HPC)) is reported as 10 of 10.
`COc1cc2ccc(CCNCc3ccccc3)cc2cc1OC` was tested, and the survivor count [4] was 2 of 10 and the survivor count [5] was 0 of 10.
